{"source": "PubChem BioAssay AID720505 | Drosophila RNAi Screening Center | 2013", "assay": "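Knock-downs that reduce calcium influx once internal stores are emptied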 (primary screen)", "cells": "Drosophila S2R+ cells", "reagents": "long dsRNA against Drosophila genes", "conditions": "thapsigargin (2 µM) in calcium-free buffer to empty internal stores, then 2 mM calcium added back", "measured": "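Fluo-4 signal in 384-well plates read on a FLIPR after thapsigargin (2 µM, calcium-free) store depletion and 2 mM calcium add-back; unnormalised mean endpoint per well; screen run twice, selected wells retested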", "direction": "calcium signal and retest calcium signal: higher = more calcium entry after store depletion", "call rule": "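About 1500 genes called as lowering calcium entry, by varying amounts, judged against per-plate control wells with STIM1 as positive and Rho1 as negative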", "meaning of the calls": "active = called as lowering calcium entry; inactive = not called", "note": "The deposit covers about 20,000 reagents; this is a random part of those with a known target gene and a result. In the full data, about 2,100 (10%) are marked active. 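Raw plate signals without normalisation; calls rest on control-based scores that were not deposited; replicate 2 separates called from uncalled poorly.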 A number with no mark means an inactive call. Not stated in the record: the amount of reagent, the time to read-out."}
{"Target gene": "Hsl (Hormone-sensitive lipase)", "PubChem SID": "SID104185820", "calcium signal, replicate 1": 130, "calcium signal, replicate 2": 158}
{"Target gene": "beg (bad egg)", "PubChem SID": "SID104190715", "calcium signal, replicate 1": 89, "calcium signal, replicate 2": 142}
{"Target gene": "hng3 (hinge3)", "PubChem SID": "SID104188159", "calcium signal, replicate 1": 108, "calcium signal, replicate 2": 68.9}
{"Target gene": "shakB (shaking B)", "PubChem SID": "SID104200212", "calcium signal, replicate 1": 64.3, "calcium signal, replicate 2": 68.8}
{"Target gene": "shakB (shaking B)", "PubChem SID": "SID104200215", "calcium signal, replicate 1": "55.7 (active)", "calcium signal, replicate 2": 72.2, "retest calcium signal, replicate 1": 105, "retest calcium signal, replicate 2": 87.5}
{"Target gene": "shakB (shaking B)", "PubChem SID": "SID104200284", "calcium signal, replicate 1": 111, "calcium signal, replicate 2": 83.5}
{"Target gene": "shakB (shaking B)", "PubChem SID": "SID104200377", "calcium signal, replicate 1": "74.6 (active)", "calcium signal, replicate 2": 139}
{"Target gene": "shakB (shaking B)", "PubChem SID": "SID104201187", "calcium signal, replicate 1": 63.4, "calcium signal, replicate 2": 94.2}
{"Target gene": "shakB (shaking B)", "PubChem SID": "SID104202176", "calcium signal, replicate 1": 95.9, "calcium signal, replicate 2": 85.7}
{"Target gene": "CR17024 (pseudo)", "PubChem SID": "SID104182354", "calcium signal, replicate 1": 95.8, "calcium signal, replicate 2": 98.9}
{"Target gene": "Obp46a (Odorant-binding protein 46a)", "PubChem SID": "SID104186012", "calcium signal, replicate 1": 106, "calcium signal, replicate 2": 108}
{"Target gene": "Gr98b (Gustatory receptor 98b)", "PubChem SID": "SID104201358", "calcium signal, replicate 1": 226, "calcium signal, replicate 2": 122}
{"Target gene": "Pink1 (PTEN-induced putative kinase 1)", "PubChem SID": "SID104198153", "calcium signal, replicate 1": 183, "calcium signal, replicate 2": 143}
{"Target gene": "Pbgs (Porphobilinogen synthase)", "PubChem SID": "SID104189510", "calcium signal, replicate 1": 100, "calcium signal, replicate 2": 98.4}
{"Target gene": "CG34328", "PubChem SID": "SID104199048", "calcium signal, replicate 1": 82.7, "calcium signal, replicate 2": 117}
{"Target gene": "CG14606", "PubChem SID": "SID104192342", "calcium signal, replicate 1": 115, "calcium signal, replicate 2": 124}
{"Target gene": "spin (spinster)", "PubChem SID": "SID104186968", "calcium signal, replicate 1": 158, "calcium signal, replicate 2": 82.5, "retest calcium signal, replicate 1": 99.7, "retest calcium signal, replicate 2": 110}
{"Target gene": "spin (spinster)", "PubChem SID": "SID104201791", "calcium signal, replicate 1": 102, "calcium signal, replicate 2": 135}
{"Target gene": "Btk (Bruton tyrosine kinase)", "PubChem SID": "SID104181800", "calcium signal, replicate 1": 182, "calcium signal, replicate 2": 141}
{"Target gene": "Btk (Bruton tyrosine kinase)", "PubChem SID": "SID104182458", "calcium signal, replicate 1": 141, "calcium signal, replicate 2": 307}
{"Target gene": "Btk (Bruton tyrosine kinase)", "PubChem SID": "SID104201898", "calcium signal, replicate 1": 106, "calcium signal, replicate 2": 167}

Reformatted: 3 of the entries above
Target gene | PubChem SID | calcium signal, replicate 1 | calcium signal, replicate 2 | retest calcium signal, replicate 1 | retest calcium signal, replicate 2
Pbgs (Porphobilinogen synthase) | SID104189510 | 100 | 98.4 | – | –
CG34328 | SID104199048 | 82.7 | 117 | – | –
CG14606 | SID104192342 | 115 | 124 | – | –
